Laboratory results as given in paper PMC5833727.
Results are given in words; binding and its absence hold for the method and conditions named. In cells and extracts the contact can be indirect. Some binding calls cover weakened binding; strength is not graded here.

By UniProt entry, the sequences of proteins in these tests, tags left out. Residues count along the entry.
UniProt P25445, residues 26-335: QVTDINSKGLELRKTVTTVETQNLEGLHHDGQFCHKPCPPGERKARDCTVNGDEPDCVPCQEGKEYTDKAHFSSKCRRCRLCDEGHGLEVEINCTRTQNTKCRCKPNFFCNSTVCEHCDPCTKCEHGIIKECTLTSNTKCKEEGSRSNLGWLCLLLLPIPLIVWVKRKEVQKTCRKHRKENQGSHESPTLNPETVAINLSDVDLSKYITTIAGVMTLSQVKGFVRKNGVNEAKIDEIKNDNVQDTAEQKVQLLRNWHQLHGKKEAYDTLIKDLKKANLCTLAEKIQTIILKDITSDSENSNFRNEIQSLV
UniProt Q9Y3R4: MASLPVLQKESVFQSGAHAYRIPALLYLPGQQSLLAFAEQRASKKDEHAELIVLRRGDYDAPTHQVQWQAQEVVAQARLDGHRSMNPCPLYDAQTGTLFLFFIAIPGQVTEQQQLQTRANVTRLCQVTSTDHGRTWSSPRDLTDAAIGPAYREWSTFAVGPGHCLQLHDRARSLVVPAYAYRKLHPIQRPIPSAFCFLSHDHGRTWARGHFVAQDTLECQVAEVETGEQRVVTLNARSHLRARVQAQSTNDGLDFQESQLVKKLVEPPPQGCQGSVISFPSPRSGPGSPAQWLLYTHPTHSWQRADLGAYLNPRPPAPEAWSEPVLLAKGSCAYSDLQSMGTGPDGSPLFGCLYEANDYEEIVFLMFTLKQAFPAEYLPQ

Columns and labels:
[1] = molecular target: Death receptor Fas (CD95) (human (endogenous in MIAPaCa2 and AsPC1)) (UniProt P25445); assay: co-IP; membrane fraction of mock and Neu2-transfected MIAPaCa2 and AsPC1 cells, processed as the cell lysate (anti-Fas IP, anti-Neu2 blot); rabbit IgG as negative control
[2] = molecular target: Death receptor Fas (CD95) (human (endogenous in MIAPaCa2 and AsPC1)) (UniProt P25445); assay: co-IP; total cell lysate (200 ug) of mock and Neu2-transfected MIAPaCa2 and AsPC1 cells; anti-Fas antibody (1:100) overnight at 4 C, protein A-Sepharose 4B for 3 h; blot with anti-Neu2; rabbit IgG as negative control

Q: Which binding [1] does the source give for “cytosolic sialidase Neu2 (from UniProt Q9Y3R4 1-380) (enzyme)” here?
A: binds

Q: And the binding [2]?
A: binds
